## Assay results

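HEK-293 cells carrying an ATXN2-luciferase reporter; luminescence signal loss after 24 h of compound exposure, with a parallel cell viability readout.
Compounds were tested as a dilution series from about 0.0037 to 57 µM.
The number is the fitted half-maximal inhibitory concentration (AC50); a lower value means a more potent inhibitor.
Calls come from curve class and activity score: actives score 40–100, while inconclusive compounds (weak, partial, poorly fitted or single-point curves) score 1–39.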

Values are in µM.
Every entry below has the call inconclusive.
Only part of the assay is shown, chiefly results filed as inconclusive.
Potencies fitted to partial, single-point or poorly fitting curves are rough.
Some entries filed as inconclusive have a full curve.
Activity scores are not listed here.

| SMILES | potency (µM) | remark |
|---|---|---|
| `C/C(=N\NC(=O)CSCc1ccc([N+](=O)[O-])cc1)c1ccccc1O` | 3.162 | inhibitor, single point |
| `O=C(NN=C1CCCC1)c1cc(-c2ccc(F)cc2)nc2ccccc12` | 28.18 | inhibitor, single point |
| `COc1ccc(Cl)cc1C(=O)Nc1ccccc1N1CCN(C(=O)C(C)C)CC1` | 15.85 | inhibitor, partial curve, poor fit |
| `Cc1c(C(=O)Nc2nccs2)sc2nc(-c3cccs3)cc(C(F)(F)F)c12` | 1.259 | inhibitor, partial curve |
| `O=C(NCc1ccccc1)c1ccc(C(=O)N(C2CCCCC2)C2CCCCC2)cc1` | 31.62 | inhibitor, partial curve, poor fit |
| `COc1ccnc(Oc2ccc(F)cc2)c1C(=O)N/C=N/OCc1ccc(Cl)cc1Cl` | 31.62 | inhibitor, single point |
| `CCc1ccc(OCCNc2cc(N3CCNC(C)C3)ccc2[N+](=O)[O-])cc1` (centres unmarked) | 28.18 | inhibitor, single point |
| `COc1cc(C(=O)NNC(=O)c2ccc3ccccc3n2)cc(OC)c1OC` | 14.13 | inhibitor, partial curve, poor fit |
| `COc1ccc(NC(=O)N2CCN(c3nc(-c4cccc(OC)c4)cs3)CC2)cc1` | 1.778 | inhibitor, partial curve |
| `Cc1ccnn1CC(=O)N/N=C/c1ccc([N+](=O)[O-])s1` | 17.78 | inhibitor, partial curve, poor fit |
| `CN(C)S(=O)(=O)c1cc(NC(=O)CSc2ncc(C(F)(F)F)cc2Cl)ccc1Cl` | 28.18 | inhibitor, single point |
| `COc1cc(/C=C/C(=O)CC(=O)/C=C/c2ccc(O)c(OC)c2)ccc1O` | 39.81 | inhibitor, single point |
| `Cc1nc(N2CCN(Cc3ccc4c(c3)OCO4)CC2)c2oc3ccccc3c2n1` | 2.239 | inhibitor, partial curve, poor fit |
| `COc1ccc(C(=O)N2CCN(c3nc(C4CC4)nc4sc(C)c(C)c34)CC2)cc1` | 28.18 | inhibitor, partial curve, poor fit |
| `COc1ccc2c(c1)C(SCC(=O)NCCc1ccc(Cl)cc1)CC(C)(C)O2` (centres unmarked) | 2.239 | inhibitor, partial curve, poor fit |
| `Clc1cccc(-c2nc(NCc3cccnc3)c3ccccc3n2)c1` | 19.95 | inhibitor, single point |
| `O=C(N/N=C/c1ccccc1O)/C(=C/c1ccccc1)CCO` | 0.7079 | inhibitor, full curve |
| `O=C(CCN1CCN(c2ccccc2)CC1)N/N=C/c1ccccc1O` | 0.8913 | inhibitor, full curve |
| `O=S(=O)(c1ccc2c(c1)OCCO2)N1CCC(c2nc3ccc(Cl)cc3[nH]2)CC1` | 1.995 | inhibitor, partial curve |
| `O=C(NCc1cc(C(F)(F)F)ccc1Cl)c1cccc2c1C(=O)c1ccc(N3CCC(N4CCCCC4)CC3)cc1S2(=O)=O` | 31.62 | inhibitor, single point |
| `COc1ccc(CNC(=O)Nc2nc(C(N)Cc3ccc(C(F)(F)F)cc3)cs2)cc1` (centres unmarked) | 28.18 | inhibitor, single point |
| `NS(=O)(=O)c1ccc(CCNc2ccn3nc(-c4cccc(C(F)(F)F)c4)cc3n2)cc1` | 31.62 | inhibitor, single point |
| `CC1(C(=O)NCc2ccccc2Br)CCN1C(=O)Cc1ccc(-c2ccccc2)cc1` (centres unmarked) | 28.18 | inhibitor, single point |
| `CCN(CC)c1c(C)nc2ccc(C(=O)Nc3cc(-c4ccccc4)ccc3OC)cn12` | 28.18 | inhibitor, single point |
| `CCCC(=O)N1CCCC(c2cc(C(=O)Nc3ccccc3)no2)C1` (centres unmarked) | 14.13 | inhibitor, partial curve, poor fit |
| `Cc1ccc(S(=O)(=O)N(Cc2ccccc2)c2ccccc2C(=O)NCc2ccco2)cc1` | 31.62 | inhibitor, single point |
| `Cc1cc(C)cc(C(=O)N(NC(=O)Nc2ccc(Cl)cc2)C(C)(C)C)c1` | 28.18 | inhibitor, single point |
| `COc1cccc(-c2sc3ccccc3c2-c2ccc(OCCN3CCCC3)cc2)c1` | 7.943 | inhibitor, single point |
| `CS(=O)(=O)Nc1cccc(NC(=O)c2cccc3c(-c4cccc(C(N)=O)c4)coc23)c1` | 39.81 | inhibitor, single point |

Once more, the final 3:

SMILES	potency (µM)	remark
Cc1cc(C)cc(C(=O)N(NC(=O)Nc2ccc(Cl)cc2)C(C)(C)C)c1	28.18	inhibitor, single point
COc1cccc(-c2sc3ccccc3c2-c2ccc(OCCN3CCCC3)cc2)c1	7.943	inhibitor, single point
CS(=O)(=O)Nc1cccc(NC(=O)c2cccc3c(-c4cccc(C(N)=O)c4)coc23)c1	39.81	inhibitor, single point

The results are deposited in PubChem (AID1745848; NCATS, 2022).